In patent US20240317745A1, “SIGMA-1 RECEPTOR ANTAGONISTS AND THEIR APPLICATIONS” (Humanwell Pharmaceutical US, Inc., priority 2023, published 2024):
At least one structure is not confirmed: it was looked up by name or label, or the drawing left a doubt.

System: Spinal Nerve Ligation (SNL) model
Experiment: Spinal Nerve Ligation (SNL) model, mechanical pain threshold by Von Frey filaments
Format: in vivo
Settings: rat, oral administration (i.g.), 100 mg/kg, mechanical pain threshold ipsilateral hind paw
Source text: It is a type of chronic pain characterized by features such as spontaneous pain, hyperalgesia, abnormal pain, and sensory disturbances. Following nerve damage, neuropathic pain can persist, and its characteristics include hypersensitive responses to stimuli […], the presence of abnormal sensations (allodynia), and painful responses to non-harmful stimuli […]. The Spinal Nerve Ligation (SNL) model involves the tight ligation of the L5 and L6 spinal nerves using sutures.
In this experiment, pregabalin at a dose of 100 mg/kg was used as a positive control to compare the analgesic effect of the test compound. After administration, the mechanical pain threshold in the ipsilateral hind paw of the rat was tested using Von Frey filaments. The change in mechanical pain threshold before and after administration was used to determine whether the test compound at 100 mg/kg has a neuropathic pain-relieving effect in the SNL model.

Question: Which “analgesic activity in the SNL model” value does the source give for `OC1CCN(Cc2cc(-c3ccc(F)c(F)c3)no2)CC1` [Compound 37] here?
Answer: some analgesic activity
